Reference: paper PMC10482896
These are yes or no findings as the source states them, for the method shown. Binding seen in cells or lysates may run through a third protein. Some entries that bind do so weakly or less than the wild type. Sequences can lack the tags named with a protein.

T1: Pcr1-Flag fusion protein (bZIP transcription factor Pcr1) (S. pombe) (UniProt Q09926)
T1 sequence: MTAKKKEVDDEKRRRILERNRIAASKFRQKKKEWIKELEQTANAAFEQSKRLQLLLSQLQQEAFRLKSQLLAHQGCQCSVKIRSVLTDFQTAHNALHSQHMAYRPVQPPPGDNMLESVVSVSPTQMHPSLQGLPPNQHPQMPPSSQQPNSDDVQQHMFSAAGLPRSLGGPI

B1: Flp1-HA fusion protein (Cdc14-like phosphatase Flp1/Clp1) (enzyme, UniProt Q9P7H1 1-537)
chain: MDYQDDGLGEMIEFLEDKLYYTSLSQPPKAELYPHMHFFTIDDELIYNPFYHDFGPLNVSHLIRFAVIVHGIMGKHRQAKKSKAIVLYSSTDTRLRANAACLLACYMVLVQNWPPHLALAPLAQAEPPFLGFRDAGYAVSDYYITIQDCVYGLWRARESSILNIRNIDVHDYETYERVENGDFNWISPKFIAFASPIQAGWNHASTRPKKLPQPFAIVLDYFVANKVKLIVRLNGPLYDKKTFENVGIRHKEMYFEDGTVPELSLVKEFIDLTEEVEEDGVIAVHCKAGLGRTGCLIGAYLIYKHCFTANEVIAYMRIMRPGMVVGPQQHWLHINQVHFRAYFYEKAMGRAIQQATAAEPLATPPRHPLNATNGTSQSNISTPLPEPTPGQPRKVSGHNPPSARRLPSASSVKFNEKLKNASKQSIQNENKASYSSYEDSEIQNDDETRTVGTPTETISVVRLRRSSSQSNIEPNGVRSPTSSPTGSPIRRTSGNRWSSGSSHSKKSAQRSVSMSSLNNTSNGRVAKPKPSKSRLIS
B2: Atf1 (bZIP transcription factor) (protein, UniProt P52890 1-566)
chain: MSPSPVNTSTEPASVAAVSNGNATASSTQVPENNQSDSFAPPSNNSQQNQQSSTIAPNGGAGSVANANPADQSDGVTPSFVGSLKLDYEPNPFEHSFGSTASVGQGNPSLNRNPSLSNIPSGVPPAFARTLLPPVSSIASPDILSGAPGIASPLGYPAWSAFTRGTMHNPLSPAIYDATLRPDYLNNPSDASAAARFSSGTGFTPGVNEPFRSLLTPTGAGFPAPSPGTANLLGFHTFDSQFPDQYRFTPRDGKPPVVNGTNGDQSDYFGANAAVHGLCLLSQVPDQQQKLQQPISSENDQAASTTANNLLKQTQQQTFPDSIRPSFTQNTNPQAVTGTMNPQASRTQQQPMYFMGSQQFNGMPSVYGDTVNPADPSLTLRQTTDFSGQNAENGSTNLPQKTSNSDMPTANSMPVKLENGTDYSTSQEPSSNANNQSSPTSSINGKASSESANGTSYSKGSSRRNSKNETDEEKRKSFLERNRQAALKCRQRKKQWLSNLQAKVEFYGNENEILSAQVSALREEIVSLKTLLIAHKDCPVAKSNSAAVATSVIGSGDLAQRINLGY

Target: T1, Pcr1-Flag fusion protein (bZIP transcription factor Pcr1) (S. pombe)
Assay: co-IP; Pcr1-Flag precipitated with monoclonal anti-Flag on protein G Dynabeads from S. pombe extracts (3 mg, 5 h, 4 °C); cells untreated or treated with 1 mM H2O2 for 10 min, then cross-linked with formaldehyde (1.5%); lysis buffer 20 mM Tris pH 8, 100 mM NaCl, 2 mM EDTA, 0.5% NP-40; blots with anti-HA, anti-Flag and anti-Atf1

binding	Binder
binds	B1
binds	B2
